Measurements published in publication PMC6599204.
No constants are given. Whether binding was seen depends on the method and setting. Some entries that bind do so weakly or less than the wild type.

The chains behind the UniProt entries cited, without tags or fusion partners.
UniProt Q8TAF3: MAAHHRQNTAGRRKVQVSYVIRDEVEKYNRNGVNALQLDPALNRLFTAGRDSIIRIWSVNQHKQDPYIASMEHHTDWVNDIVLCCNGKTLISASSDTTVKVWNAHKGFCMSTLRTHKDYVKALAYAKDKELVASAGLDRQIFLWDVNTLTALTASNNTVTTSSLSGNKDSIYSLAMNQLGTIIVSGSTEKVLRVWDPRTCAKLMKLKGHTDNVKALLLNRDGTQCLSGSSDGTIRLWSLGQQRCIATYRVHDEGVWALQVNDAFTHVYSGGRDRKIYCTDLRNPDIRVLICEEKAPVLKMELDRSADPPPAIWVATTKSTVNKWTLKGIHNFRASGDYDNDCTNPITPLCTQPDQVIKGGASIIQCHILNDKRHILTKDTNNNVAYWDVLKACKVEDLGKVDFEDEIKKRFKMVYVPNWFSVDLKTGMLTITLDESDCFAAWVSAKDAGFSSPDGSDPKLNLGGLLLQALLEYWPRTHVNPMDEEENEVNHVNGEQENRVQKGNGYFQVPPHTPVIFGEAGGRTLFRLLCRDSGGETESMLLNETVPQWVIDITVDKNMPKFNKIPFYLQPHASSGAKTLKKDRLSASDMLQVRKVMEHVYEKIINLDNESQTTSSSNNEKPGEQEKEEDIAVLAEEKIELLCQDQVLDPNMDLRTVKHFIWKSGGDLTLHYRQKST

Molecular target: T1, RAD51AP1 (human) (UniProt Q96B01)
T1 sequence: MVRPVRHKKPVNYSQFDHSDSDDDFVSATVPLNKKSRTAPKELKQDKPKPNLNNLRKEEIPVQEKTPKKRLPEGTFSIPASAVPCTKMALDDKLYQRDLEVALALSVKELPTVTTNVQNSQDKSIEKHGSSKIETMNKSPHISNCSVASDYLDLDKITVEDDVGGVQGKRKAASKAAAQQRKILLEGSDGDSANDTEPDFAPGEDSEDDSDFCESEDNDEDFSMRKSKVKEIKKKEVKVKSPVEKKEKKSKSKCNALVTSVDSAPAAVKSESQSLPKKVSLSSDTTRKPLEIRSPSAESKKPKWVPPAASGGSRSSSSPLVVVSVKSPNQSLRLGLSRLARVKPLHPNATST
Test: pull-down; GST or MBP-tagged RAD51AP1 (2 ug) and Strep II-tagged UAF1 (2 ug) in 30 ul of 25 mM Tris-HCl pH 7.5, 10% glycerol, 0.5 mM EDTA, 0.01% Igepal, 1 mM DTT, 150 mM KCl for 30 min; captured on glutathione or amylose resin at 4 C for 1 h; SDS eluate on SDS-PAGE, Coomassie Blue; both purified

UAF1 (from UniProt Q8TAF3 1-677)
binding: binds
